Data source: PubChem BioAssay AID1259308 (NCATS, 2017)
Screen: 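Candidate targets for better recombinant protein yield in mammalian cells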 (primary screen). System: human HEK293 embryonic kidney cells stably expressing firefly luciferase (HEK-CMV-Luc2-Hygro). Reagent: single siRNA against human genes, 0.8 pmol siRNA per well. Time to read-out: 72 h. Detection: 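Luciferase light (ONE-Glo) measured on one replicate plate set and viability (CellTiter-Glo) on the other, scaled to a negative control siRNA, with robust z-scores and luciferase per cell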. Direction: total luciferase, z-score: higher = more reporter protein produced. Hit rule: 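An siRNA counts as active if its total luciferase robust z-score exceeds 3; genes with two or more such siRNAs out of three were retested with fresh siRNAs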. Meaning of the calls: active = raised luciferase; inactive = no rise.
This is a random part of about 59,000 reagents. About 1,510 of all reagents (2.6%) count as active. 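Calls use total luciferase alone and ignore viability, so some active siRNAs may act by altering cell number.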 The numbers tell different reagents against one gene apart. Not all columns of the deposit are shown.

| gene | reagent no. | total luciferase, z-score | Call |
| --- | --- | --- | --- |
| SCARB2 | 1 | -0.244 | inactive |
| SCARB2 | 2 | -2.15 | inactive |
| SCARB2 | 3 | 0.457 | inactive |
| CD7 | 1 | 0.153 | inactive |
| CD7 | 2 | -0.363 | inactive |
| CD7 | 3 | 1.38 | inactive |
| MPP7 | 1 | 1.32 | inactive |
| MPP7 | 2 | -0.494 | inactive |
| MPP7 | 3 | -0.264 | inactive |
| FAM167B | 1 | 1.16 | inactive |
| FAM167B | 2 | 0.0706 | inactive |
| FAM167B | 3 | -0.147 | inactive |
| HNRNPC | 1 | 3.89 | active |
| HNRNPC | 2 | 4.83 | active |
| HNRNPC | 3 | 4.33 | active |
| CDC27P5 | 1 | 0.48 | inactive |
| CDC27P5 | 2 | 0.846 | inactive |
| CDC27P5 | 3 | -1.21 | inactive |
| NOTCH1 | 1 | -1.2 | inactive |
| NOTCH1 | 2 | 1.49 | inactive |
| NOTCH1 | 3 | 0.0333 | inactive |

4 entries from above, set out differently.
gene,reagent no.,"total luciferase, z-score",Call
SCARB2,1,-0.244,inactive
SCARB2,2,-2.15,inactive
SCARB2,3,0.457,inactive
CD7,1,0.153,inactive

Additional reagents follow:
| gene | reagent no. | total luciferase, z-score | Call |
| --- | --- | --- | --- |
| GLRA2 | 1 | -0.0365 | inactive |
| GLRA2 | 2 | -0.898 | inactive |
| GLRA2 | 3 | 0.28 | inactive |
| SH3D19 | 1 | 0.132 | inactive |
| SH3D19 | 2 | -1.64 | inactive |
| SH3D19 | 3 | -0.252 | inactive |
| EIF3E | 1 | -2.06 | inactive |
| EIF3E | 2 | -1.98 | inactive |
| EIF3E | 3 | -1.97 | inactive |
| RAB6C | 1 | -1.17 | inactive |
| RAB6C | 2 | -0.556 | inactive |
| RAB6C | 3 | -1.59 | inactive |
| ENAH | 1 | 2.22 | inactive |
| ENAH | 2 | 0.387 | inactive |
| ENAH | 3 | -0.252 | inactive |
| ISM1 | 1 | 1.38 | inactive |
| ISM1 | 2 | 1.63 | inactive |
| ISM1 | 3 | 0.429 | inactive |
